Values from PubChem BioAssay AID1259405 (NCATS, 2018)
Test: 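Silenced genes that increase secreted GFP made by CHO cells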 (primary screen). Cells: Chinese hamster CHO-K1 ovary cells with stable secreted eGFP expression. Knock-down reagent: single siRNA against mouse genes, 0.8 pmol siRNA per well (2 µl of 400 nM stock). Duration: 3 days. Measurement: 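Percent of the per-plate non-targeting control median for intracellular GFP per well by laser scanning cytometry and for cell viability by ATP luminescence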. Scale: GFP, % of control: higher = more GFP per well, higher productivity; viability (ATP), % of control: higher = more viable cells (more ATP). Active means: 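a knock-down is called active if GFP reaches 120% or more of non-targeting control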.
The deposit covers about 50,000 reagents; this is an unselected part. About 4,000 of them (8%) count as active. 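Mouse siRNA library applied to hamster cells; one well for each siRNA.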 The numbers tell different reagents against one gene apart.

gene knocked down	reagent no.	GFP, % of control	viability (ATP), % of control	Call
Mars1 (GeneID 216443)	1	70.9	85.8	inactive
Mars1 (GeneID 216443)	2	62.3	45.6	inactive
Gdf5 (GeneID 14563)	1	98.2	70.2	inactive
Gdf5 (GeneID 14563)	2	121	99.8	active
Gdf5 (GeneID 14563)	3	84.2	109	inactive
Fbxw24 (GeneID 382106)	1	79.6	84.9	inactive
Fbxw24 (GeneID 382106)	2	86.3	55.6	inactive
Fbxw24 (GeneID 382106)	3	92.2	85.7	inactive
Fbxl6 (GeneID 30840)	1	78.9	78.2	inactive
Fbxl6 (GeneID 30840)	2	88	66.8	inactive
Fbxl6 (GeneID 30840)	3	105	91.9	inactive
Ndufs3 (GeneID 68349)	1	108	108	inactive
Ndufs3 (GeneID 68349)	2	91.2	84.7	inactive
Ndufs3 (GeneID 68349)	3	96.7	75.1	inactive
Zfp566 (GeneID 72556)	1	84.6	91.9	inactive
Zfp566 (GeneID 72556)	2	105	51.4	inactive
Zfp566 (GeneID 72556)	3	70.9	93.1	inactive
Cpsf1 (GeneID 94230)	1	122	95.1	active
Cpsf1 (GeneID 94230)	2	30.3	19.5	inactive
Cpsf1 (GeneID 94230)	3	62.8	81.8	inactive
Gm10439 (GeneID 382243)	1	55.4	68	inactive
Gm10439 (GeneID 382243)	2	30.2	46.3	inactive
Gm10439 (GeneID 382243)	3	64.9	36.8	inactive
Prss35 (GeneID 244954)	1	71.6	105	inactive
Prss35 (GeneID 244954)	2	101	71.9	inactive
Slc5a3 (GeneID 53881)	1	176	101	active
Slc5a3 (GeneID 53881)	2	66.1	56.9	inactive
Slc5a3 (GeneID 53881)	3	103	81.8	inactive
Lrrc1 (GeneID 214345)	1	52.8	48.2	inactive
Lrrc1 (GeneID 214345)	2	53.3	67.2	inactive
Lrrc1 (GeneID 214345)	3	129	80.5	active
Or1x2 (GeneID 18354)	1	54.1	50	inactive
Or1x2 (GeneID 18354)	2	89	82.4	inactive
Or1x2 (GeneID 18354)	3	105	130	inactive
Or10a49 (GeneID 258136)	1	94.9	75	inactive
Or10a49 (GeneID 258136)	2	67.9	88.4	inactive
Or10a49 (GeneID 258136)	3	55.8	67.8	inactive
Or2v1 (GeneID 18356)	1	121	81.9	active
Or2v1 (GeneID 18356)	2	57.2	59.1	inactive
Or2v1 (GeneID 18356)	3	42.7	63.6	inactive
Gtpbp4 (GeneID 69237)	1	93.5	52.6	inactive
Gtpbp4 (GeneID 69237)	2	132	83.7	active
Gtpbp4 (GeneID 69237)	3	71.9	56.7	inactive
Vwa2 (GeneID 240675)	1	64.2	75.6	inactive
Vwa2 (GeneID 240675)	2	50.2	36.9	inactive
Vwa2 (GeneID 240675)	3	65.4	53.3	inactive
B230354K17Rik (GeneID 105246278)	1	101	75.6	inactive
B230354K17Rik (GeneID 105246278)	2	50.8	54.1	inactive
B230354K17Rik (GeneID 105246278)	3	106	102	inactive
Enox2 (GeneID 209224)	1	51.8	49.4	inactive
Enox2 (GeneID 209224)	2	47	48.1	inactive
Enox2 (GeneID 209224)	3	52.3	77	inactive
Taf1b (GeneID 21340)	1	105	67.9	inactive
Taf1b (GeneID 21340)	2	106	130	inactive
Taf1b (GeneID 21340)	3	99	126	inactive
Bnip1 (GeneID 224630)	1	107	93.7	inactive
Bnip1 (GeneID 224630)	2	86.4	91.9	inactive
Med26 (GeneID 70625)	1	80.5	66	inactive
Med26 (GeneID 70625)	2	68	59.8	inactive
Slitrk1 (GeneID 76965)	1	126	114	active
Slitrk1 (GeneID 76965)	2	118	89.9	inactive
Slitrk1 (GeneID 76965)	3	110	67.4	inactive
Epc1 (GeneID 13831)	1	125	104	active
Epc1 (GeneID 13831)	2	77.3	76.9	inactive
Epc1 (GeneID 13831)	3	64.8	58.1	inactive
Cd164 (GeneID 53599)	1	72.2	65.5	inactive
Cd164 (GeneID 53599)	2	85.3	96.7	inactive
Cd164 (GeneID 53599)	3	104	86.8	inactive
Arhgap23 (GeneID 58996)	1	35.4	27.8	inactive
Arhgap23 (GeneID 58996)	2	72.6	82.1	inactive
Arhgap23 (GeneID 58996)	3	90.8	76	inactive
Pou5f1 (GeneID 18999)	1	80.7	73.4	inactive
Pou5f1 (GeneID 18999)	2	51	58.5	inactive
Pou5f1 (GeneID 18999)	3	102	85.9	inactive
Nek2 (GeneID 18005)	1	101	78.6	inactive
Nek2 (GeneID 18005)	2	119	77.9	inactive
Nek2 (GeneID 18005)	3	90.5	79.5	inactive
Esrrg (GeneID 26381)	1	57.7	38	inactive
Esrrg (GeneID 26381)	2	29.3	48.3	inactive
Megf11 (GeneID 214058)	1	13.8	21.1	inactive
Megf11 (GeneID 214058)	2	47.3	69.7	inactive
Megf11 (GeneID 214058)	3	18.8	62.3	inactive
Polr3f (GeneID 70408)	1	73.8	78.6	inactive
Polr3f (GeneID 70408)	2	66.9	78.2	inactive
Cyp2s1 (GeneID 74134)	1	83.1	70	inactive
Cyp2s1 (GeneID 74134)	2	106	107	inactive
Cyp2s1 (GeneID 74134)	3	67.5	74.8	inactive
Tbx3 (GeneID 21386)	1	82.7	62.8	inactive
Tbx3 (GeneID 21386)	2	61.7	64.6	inactive
Tbx3 (GeneID 21386)	3	81.9	72.7	inactive
Mamdc2 (GeneID 71738)	1	62.8	60.4	inactive
Mamdc2 (GeneID 71738)	2	92.6	78.5	inactive
Mamdc2 (GeneID 71738)	3	107	57.3	inactive
Sp8 (GeneID 320145)	1	77.4	84.4	inactive
Sp8 (GeneID 320145)	2	65.2	90.5	inactive
Sp8 (GeneID 320145)	3	92.7	96.5	inactive
Mrpl12 (GeneID 56282)	1	125	98.5	active
Mrpl12 (GeneID 56282)	2	106	79.4	inactive
Mrpl12 (GeneID 56282)	3	134	80.4	active
Vmn1r197 (GeneID 171278)	1	89.9	69.6	inactive
Vmn1r197 (GeneID 171278)	2	53.3	54.6	inactive
Vmn1r197 (GeneID 171278)	3	69.2	82.1	inactive
Nrg3 (GeneID 18183)	1	79.6	57.2	inactive
Nrg3 (GeneID 18183)	2	74.6	49.3	inactive
Nrg3 (GeneID 18183)	3	67.7	36.5	inactive
Nanp (GeneID 67311)	1	55.8	69	inactive
Nanp (GeneID 67311)	2	66.3	71.6	inactive
Nanp (GeneID 67311)	3	69.6	79.1	inactive

Single entries from the entries so far:
Entry for Gm10439 (GeneID 382243) #1 in “GFP, % of control”: 55.4
Nek2 (GeneID 18005) #3, viability (ATP), % of control = 79.5
Under “GFP, % of control”, Tbx3 (GeneID 21386) #3 reads 81.9
Slitrk1 (GeneID 76965) #2, GFP, % of control = 118
Fbxl6 (GeneID 30840) #2, GFP, % of control → 88
Lrrc1 (GeneID 214345) #2, GFP, % of control = 53.3
